This passage reports binding results from PMC4669809.

By UniProt entry, the sequences of proteins in these tests, tags left out.
UniProt P02340: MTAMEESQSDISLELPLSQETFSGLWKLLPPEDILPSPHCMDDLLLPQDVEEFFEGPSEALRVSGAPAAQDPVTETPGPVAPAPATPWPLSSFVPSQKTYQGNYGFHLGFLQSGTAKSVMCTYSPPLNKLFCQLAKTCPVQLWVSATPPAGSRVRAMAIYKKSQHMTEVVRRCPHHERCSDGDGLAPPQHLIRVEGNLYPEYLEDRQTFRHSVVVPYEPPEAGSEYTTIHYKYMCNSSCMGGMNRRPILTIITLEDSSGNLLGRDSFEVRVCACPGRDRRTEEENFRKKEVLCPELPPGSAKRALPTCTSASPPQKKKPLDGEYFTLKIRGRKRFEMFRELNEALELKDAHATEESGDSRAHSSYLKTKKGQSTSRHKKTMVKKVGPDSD

Results are given in words; binding and its absence hold for the method and conditions named. Binding seen in cells or lysates may run through a third protein. Some results given as binding are weak or reduced against the parent protein; the word gives no strength.

The target of test [1] is p53 (mouse (endogenous in D3 murine embryonic stem cells)) (UniProt P02340). The test can be described thus: co-sedimentation; 10-40% sucrose gradient of lysates of D3 mESCs and of D3 cells differentiated 7 days with retinoic acid, 100 000 x g, 4 °C, 18 h; 28 fractions analysed by western blot.
Test [2] shares this target. As to the kind of experiment: co-IP; p53 precipitated from 1 mg D3 mESC lysate (10 mM HEPES pH 7.4, 50 mM NaCl, 0.5 M sucrose, 0.5% Triton X-100, DNAse) with anti-p53 antibody 1C12 on protein A-agarose, 2 h at 4 °C; MdmX detected by western blot; cells not irradiated or irradiated with 7 Gray and lysed 3 h later (interaction strongly reduced after irradiation).

B1: MdmX (mouse double minute X) (protein, UniProt O35618 1-489)
chain: MTSHSTSAQCSASDSACRISSEQISQVRPKLQLLKILHAAGAQGEVFTMKEVMHYLGQYIMVKQLYDQQEQHMVYCGGDLLGDLLGCQSFSVKDPSPLYDMLRKNLVTSASINTDAAQTLALAQDHTMDFPSQDRLKHGATEYSNPRKRTEEEDTHTLPTSRHKCRDSRADEDLIEHLSQDETSRLDLDFEEWDVAGLPWWFLGNLRNNCIPKSNGSTDLQTNQDIGTAIVSDTTDDLWFLNETVSEQLGVGIKVEAANSEQTSEVGKTSNKKTVEVGKDDDLEDSRSLSDDTDVELTSEDEWQCTECKKFNSPSKRYCFRCWALRKDWYSDCSKLTHSLSTSNITAIPEKKDNEGIDVPDCRRTISAPVVRPKDGYLKEEKPRFDPCNSVGFLDLAHSSESQEIISSAREQTDIFSEQKAETESMEDFQNVLKPCSLCEKRPRDGNIIHGKTSHLTTCFHCARRLKKSGASCPACKKEIQLVIKVFIA
B1: the binding result in test [1] and in test [2] was “binds” each time.
